Assay [1] concerns the target T7-PAR2 (UniProt P55085). The assay is described as follows: co-immunoprecipitation.
The target in assay [2] is T7-PAR2 (UniProt P55085). Kind of assay: co-immunoprecipitation from COS7 cells on T7-agarose beads, myc immunoblot.

The chains behind the UniProt entries cited, without tags or fusion partners. Residues count along the entry.
UniProt P55085, residues 26-397: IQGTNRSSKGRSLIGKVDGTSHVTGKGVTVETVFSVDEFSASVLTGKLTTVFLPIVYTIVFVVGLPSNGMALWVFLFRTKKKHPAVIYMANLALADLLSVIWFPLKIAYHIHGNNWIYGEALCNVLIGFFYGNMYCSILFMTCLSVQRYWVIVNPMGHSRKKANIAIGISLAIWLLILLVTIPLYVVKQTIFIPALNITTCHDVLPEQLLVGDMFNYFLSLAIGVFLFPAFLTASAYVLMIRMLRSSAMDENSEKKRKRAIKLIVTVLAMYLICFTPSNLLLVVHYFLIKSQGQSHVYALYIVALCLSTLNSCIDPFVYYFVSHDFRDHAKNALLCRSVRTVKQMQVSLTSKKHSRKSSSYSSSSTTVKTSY

These are yes or no findings as the source states them, for the method shown. In cells and extracts the contact can be indirect. Some results given as binding are weak or reduced against the parent protein; the word gives no strength.

In the case of “PAR2-myc (from UniProt P55085 26-397) (receptor)”, the binding result with T7-PAR2 [1] and with T7-PAR2 [2] was “binds” throughout.

The record behind these values is patent US20140087993A1 (TUFTS MEDICAL CENTER, published 2014).
